In assay [1] the target is FLAG-tagged wild-type DPP9 (UniProt Q86TI2). The experiment in a line: affinity purification with mass spectrometry; FLAG-tagged GFP, DPP9 WT or DPP9 S730A transiently expressed in DPP8/9−/− HEK 293T cells, anti-FLAG agarose IP, quantitative mass spectrometry; enrichment relative to the GFP control IP.
The target of assay [2] is FLAG-tagged catalytically inactive S730A mutant DPP9 (UniProt Q86TI2). The assay is described as above.

Sequences of proteins named here, by UniProt entry; tags and fusion partners are left off. A change or cut given only in a name is not applied to a line headed by its entry.
UniProt Q86TI2: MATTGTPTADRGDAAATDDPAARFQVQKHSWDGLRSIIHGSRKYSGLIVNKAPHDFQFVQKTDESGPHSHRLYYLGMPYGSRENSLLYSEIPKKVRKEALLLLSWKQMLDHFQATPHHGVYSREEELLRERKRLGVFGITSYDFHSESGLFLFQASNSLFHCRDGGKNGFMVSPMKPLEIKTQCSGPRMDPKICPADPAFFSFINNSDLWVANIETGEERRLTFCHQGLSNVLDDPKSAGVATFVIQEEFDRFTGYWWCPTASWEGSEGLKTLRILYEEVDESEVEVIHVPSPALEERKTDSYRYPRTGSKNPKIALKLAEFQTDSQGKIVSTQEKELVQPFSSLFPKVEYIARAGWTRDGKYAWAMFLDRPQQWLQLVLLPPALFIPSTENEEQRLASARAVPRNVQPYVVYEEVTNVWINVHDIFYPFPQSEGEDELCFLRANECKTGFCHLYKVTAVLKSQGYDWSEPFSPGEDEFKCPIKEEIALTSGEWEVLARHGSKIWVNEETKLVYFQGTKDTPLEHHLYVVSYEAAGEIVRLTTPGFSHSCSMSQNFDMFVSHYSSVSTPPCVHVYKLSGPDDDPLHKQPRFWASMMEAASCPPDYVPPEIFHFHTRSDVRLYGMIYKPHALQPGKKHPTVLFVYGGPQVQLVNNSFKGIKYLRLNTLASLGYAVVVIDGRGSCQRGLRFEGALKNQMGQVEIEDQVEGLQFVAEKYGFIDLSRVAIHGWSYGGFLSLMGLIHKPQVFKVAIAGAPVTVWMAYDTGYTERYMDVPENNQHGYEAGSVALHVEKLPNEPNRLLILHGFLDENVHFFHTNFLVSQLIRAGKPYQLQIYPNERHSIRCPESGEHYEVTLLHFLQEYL
UniProt O00483: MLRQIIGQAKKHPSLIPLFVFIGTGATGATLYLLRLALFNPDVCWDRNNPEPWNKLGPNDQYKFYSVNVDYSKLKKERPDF
UniProt O60884: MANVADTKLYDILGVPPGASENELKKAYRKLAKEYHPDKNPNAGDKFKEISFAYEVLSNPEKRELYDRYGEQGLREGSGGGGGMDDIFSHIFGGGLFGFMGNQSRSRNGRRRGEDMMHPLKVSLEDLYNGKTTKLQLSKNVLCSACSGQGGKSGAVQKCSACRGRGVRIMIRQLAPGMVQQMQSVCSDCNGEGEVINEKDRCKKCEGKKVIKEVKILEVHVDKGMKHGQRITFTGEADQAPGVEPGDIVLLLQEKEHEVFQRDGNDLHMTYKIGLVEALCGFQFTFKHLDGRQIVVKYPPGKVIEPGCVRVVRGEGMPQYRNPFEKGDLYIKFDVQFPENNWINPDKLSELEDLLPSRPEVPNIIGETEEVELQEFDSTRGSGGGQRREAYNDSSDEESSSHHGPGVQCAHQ
UniProt O95816: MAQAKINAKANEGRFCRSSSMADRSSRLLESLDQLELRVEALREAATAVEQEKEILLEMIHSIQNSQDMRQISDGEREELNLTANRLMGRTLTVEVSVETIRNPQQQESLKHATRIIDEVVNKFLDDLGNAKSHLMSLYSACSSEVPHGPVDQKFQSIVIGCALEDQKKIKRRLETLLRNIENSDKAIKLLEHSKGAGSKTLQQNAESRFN
UniProt Q14145: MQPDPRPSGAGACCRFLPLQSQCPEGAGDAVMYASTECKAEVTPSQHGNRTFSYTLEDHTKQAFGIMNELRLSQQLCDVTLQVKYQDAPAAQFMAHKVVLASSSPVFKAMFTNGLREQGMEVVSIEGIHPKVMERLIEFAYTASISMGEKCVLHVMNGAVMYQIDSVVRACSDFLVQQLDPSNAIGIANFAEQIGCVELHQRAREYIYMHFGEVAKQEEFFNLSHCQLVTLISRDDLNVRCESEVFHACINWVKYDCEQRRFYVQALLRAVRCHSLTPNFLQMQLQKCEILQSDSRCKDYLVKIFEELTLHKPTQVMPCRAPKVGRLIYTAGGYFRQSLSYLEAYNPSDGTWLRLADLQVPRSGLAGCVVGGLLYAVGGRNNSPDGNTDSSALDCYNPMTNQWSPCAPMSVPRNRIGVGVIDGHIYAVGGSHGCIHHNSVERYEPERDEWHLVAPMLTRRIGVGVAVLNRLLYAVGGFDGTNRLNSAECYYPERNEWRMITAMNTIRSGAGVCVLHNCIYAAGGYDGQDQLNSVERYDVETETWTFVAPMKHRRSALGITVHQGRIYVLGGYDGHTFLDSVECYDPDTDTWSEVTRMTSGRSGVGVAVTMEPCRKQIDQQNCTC

Results are given in words; binding and its absence hold for the method and conditions named. Binding seen in cells or lysates may run through a third protein. These calls come from enrichment with a bait or labelling near it, and not all partners need be listed.

Take NDUFA4 (from UniProt O00483 1-81): the binding result in assay [1] and in assay [2] was “binds” in each case.

With DNAJA2 (from UniProt O60884 1-412), the binding result in assay [1] and in assay [2] was “binds” in each case.

Turning to BAG2 (from UniProt O95816 1-211), the binding result in assay [1] and in assay [2] was “binds” throughout.

Turning to “endogenous KEAP1 (from UniProt Q14145 1-624)”, the binding entry in assay [2] is given as “binds”.

These data come from paper PMC11773481.
